In patent publication US20220370636A1, “NICOTINAMIDE ADENINE DINUCLEOTIDE ACTIVATOR AND USE THEREOF” (University of South Florida, priority 2021, published 2022):

Test system: db/db mice
Assay: Echocardiography, body and heart weight in db/db mice
Type: in vivo
Conditions: P7C3 vs vehicle
Description: Echocardiography. Serial […] echocardiography was conducted under 2-3% isoflurane/oxygen anesthesia using a Visualsonic Vevo 770 system equipped with 30 MHz linear signal transducer (Toronto, Ontario, Canada). The mice were depilated as required for imaging and before placing on a 37° C. heated platform. Echo measurements were taken from at least three different cardiac cycles for each mouse. M-mode imaging from short-axis of the left ventricle (LV), using the papillary muscles for reference, was used to obtain measurements. Fractional shortening (FS %) and ejection fraction (EF %) were calculated as previously described.

Q: With `OC(CNc1ccccc1)Cn1c2ccc(Br)cc2c2cc(Br)ccc21` (centres unmarked) [P7C3, 3,6-Dibromo-a-[(phenylamino)methyl]-9H-carbazole-9-ethanol] as the compound, how does the body weight read?
A: no alterations

Q: What about the “left ventricular heart weight” value of the same compound?
A: no alterations
